Test results published in US20130174289A1, “Na+/Mg2+ Exchanger” (FBN - Leibnitz-Institut fur Nutztierbiologie, published 2013).

T1: SLC41A1 (human)
T1 chain: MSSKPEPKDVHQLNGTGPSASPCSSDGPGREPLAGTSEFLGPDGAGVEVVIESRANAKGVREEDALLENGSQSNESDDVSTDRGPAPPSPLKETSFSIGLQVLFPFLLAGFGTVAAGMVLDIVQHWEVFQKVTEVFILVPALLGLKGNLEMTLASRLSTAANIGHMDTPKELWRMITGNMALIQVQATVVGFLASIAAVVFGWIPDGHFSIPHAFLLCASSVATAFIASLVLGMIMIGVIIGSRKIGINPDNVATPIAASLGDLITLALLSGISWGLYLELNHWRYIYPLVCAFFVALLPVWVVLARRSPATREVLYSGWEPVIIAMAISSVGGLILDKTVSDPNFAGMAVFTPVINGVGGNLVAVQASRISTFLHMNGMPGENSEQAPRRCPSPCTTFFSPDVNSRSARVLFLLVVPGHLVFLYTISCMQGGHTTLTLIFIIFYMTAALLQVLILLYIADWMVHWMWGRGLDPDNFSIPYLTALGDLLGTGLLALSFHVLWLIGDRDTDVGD


Molecular target: T1, SLC41A1
Assay: split-ubiquitin method screen (DUALmembrane SU-YTH) for SLC41A1 complex-forming partners

Row | occurrence | Binder
1 | 2 clones | Putative uncharacterized protein Cxorf62 (other) MPKSLEIYKGSCNWEESGLLGSCFSQGLALLPRVEWSGAILAHCIVDLPSSSDPPTSASHFSGLQAHTTTARWSLTLLPRLECSGTISAHYNLRLLGSSNSPVSASQVAETTEACHHTRLIFVFSVETGFHHVGQAGLKLLTSGDPPASASQSAGITGVSHSARPKSCFLQLLG
2 | 2 clones | Keratinocyte-associated protein 2 (other) MVVGTGTSLALSSLLSLLLFAGMQMYSRQLASTEWLTIQGGLLGSGLFVFSLTAFNNLENLVFGKGFQAKIFPEILLCLLLALFASGLIHRVCVTTCFIFSMVGLYYINKISSTLYQAAAPVLTPAKVTGKSKKRN
